From publication PMC3971453
These are yes or no findings as the source states them, for the method shown. Some binding calls cover weakened binding; strength is not graded here.

By UniProt entry, the sequences of proteins in these tests, tags left out. Where a name states a change or a piece, a line headed by the entry shows the natural chain unless it says otherwise.
UniProt P06451: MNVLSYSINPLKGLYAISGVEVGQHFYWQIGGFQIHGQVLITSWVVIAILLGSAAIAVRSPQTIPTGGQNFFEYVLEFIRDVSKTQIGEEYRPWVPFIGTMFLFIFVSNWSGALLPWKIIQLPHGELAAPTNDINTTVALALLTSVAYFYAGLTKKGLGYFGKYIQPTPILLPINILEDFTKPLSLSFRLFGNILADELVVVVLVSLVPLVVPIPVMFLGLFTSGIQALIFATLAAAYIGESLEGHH
UniProt P06453: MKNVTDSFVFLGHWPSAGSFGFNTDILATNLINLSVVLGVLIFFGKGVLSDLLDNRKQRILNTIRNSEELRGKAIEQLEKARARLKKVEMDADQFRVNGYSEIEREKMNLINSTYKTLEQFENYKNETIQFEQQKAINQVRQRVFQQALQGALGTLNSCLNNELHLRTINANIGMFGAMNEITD
UniProt P31853: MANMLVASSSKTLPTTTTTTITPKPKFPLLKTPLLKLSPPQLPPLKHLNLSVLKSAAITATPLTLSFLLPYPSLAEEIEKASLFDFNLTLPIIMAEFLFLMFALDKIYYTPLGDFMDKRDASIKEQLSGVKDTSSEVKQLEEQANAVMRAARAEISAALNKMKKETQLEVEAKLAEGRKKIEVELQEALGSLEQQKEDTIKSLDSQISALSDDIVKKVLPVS
UniProt P69447: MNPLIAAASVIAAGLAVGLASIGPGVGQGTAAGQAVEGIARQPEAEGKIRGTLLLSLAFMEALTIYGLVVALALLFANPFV
UniProt P06450: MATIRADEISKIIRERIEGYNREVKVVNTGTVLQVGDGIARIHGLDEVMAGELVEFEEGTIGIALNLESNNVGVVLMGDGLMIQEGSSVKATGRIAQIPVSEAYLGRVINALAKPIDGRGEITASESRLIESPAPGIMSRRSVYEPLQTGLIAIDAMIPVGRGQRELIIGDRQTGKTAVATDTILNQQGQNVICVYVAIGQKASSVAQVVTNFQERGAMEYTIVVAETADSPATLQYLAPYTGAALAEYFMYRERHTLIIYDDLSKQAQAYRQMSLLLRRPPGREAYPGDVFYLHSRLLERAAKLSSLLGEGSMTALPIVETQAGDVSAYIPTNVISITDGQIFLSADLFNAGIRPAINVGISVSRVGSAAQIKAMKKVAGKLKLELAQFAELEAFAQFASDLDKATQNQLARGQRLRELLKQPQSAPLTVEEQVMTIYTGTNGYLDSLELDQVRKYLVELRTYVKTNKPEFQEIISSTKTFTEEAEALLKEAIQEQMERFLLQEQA

Molecular target: membrane-integrated FO domain (CFO) of the spinach CF1FO-ATP synthase (spinach (Spinacea oleracea L.)) (UniProt P06451+P06453+P31853+P69447)
Assay: native gel or EMSA; BN-PAGE, 3.5 to 16% acrylamide gradient; about 30 μg of solubilized purified CF1FO-ATP synthase in DDM per lane; both purified

Substance: chloroplast F1 domain (CF1) of the spinach CF1FO-ATP synthase (from UniProt P06450 1-507; P00825 1-498; P05435 42-364; P11402 71-257; P00833 1-134) (complex)
- binding: binds
